Results are given in words; binding and its absence hold for the method and conditions named. Binding can be weak; no strength is given. Each block holds one binder with its values, some of them ahead of it.
Biological target: p85 inter SH2 domain (AA 435-620) (human)
Assay: yeast two-hybrid

- binding: binds
B1: PIKAP AA 517-589 (protein, not shown: large carriers)
chain: DRLIALKAVTNFGVPVEVFDSEEAEIFQKKLDETTRLLRELQEAQNERLSTRPPGNMICLLGPSSEKCILLNK

B2: PIKAP AA 277-589 (protein, not shown: large carriers)
chain: EDSGDAEAHAFKSPSKENKKKDKDMLEDKFKSNNLEREQEQLDRIVKESGGKLTRRLVNSQCEFERRKPDGTTTLGLLHPVDPIVGEPGYCLVRLGMTTGRLQSGVNTLQGFKEDKRNKVTPVLYLNYGPYSSYAPHYDSTFANISKDDSDLIYSTYGEDSDLPSDFSIHEFLATCQDYPYVMADSLLDVLTKGGHSRTLQEMEMSLPEDEGHTRTLDTGKEMEQITEVEPPGRLDSSTQDRLIALKAVTNFGVPVEVFDSEEAEIFQKKLDETTRLLRELQEAQNERLSTRPPGNMICLLGPSSEKCILLNK
- binding: binds
